{"sequences": {"note": "By UniProt entry, the sequences of proteins in these tests, tags left out.", "UniProt P06241": "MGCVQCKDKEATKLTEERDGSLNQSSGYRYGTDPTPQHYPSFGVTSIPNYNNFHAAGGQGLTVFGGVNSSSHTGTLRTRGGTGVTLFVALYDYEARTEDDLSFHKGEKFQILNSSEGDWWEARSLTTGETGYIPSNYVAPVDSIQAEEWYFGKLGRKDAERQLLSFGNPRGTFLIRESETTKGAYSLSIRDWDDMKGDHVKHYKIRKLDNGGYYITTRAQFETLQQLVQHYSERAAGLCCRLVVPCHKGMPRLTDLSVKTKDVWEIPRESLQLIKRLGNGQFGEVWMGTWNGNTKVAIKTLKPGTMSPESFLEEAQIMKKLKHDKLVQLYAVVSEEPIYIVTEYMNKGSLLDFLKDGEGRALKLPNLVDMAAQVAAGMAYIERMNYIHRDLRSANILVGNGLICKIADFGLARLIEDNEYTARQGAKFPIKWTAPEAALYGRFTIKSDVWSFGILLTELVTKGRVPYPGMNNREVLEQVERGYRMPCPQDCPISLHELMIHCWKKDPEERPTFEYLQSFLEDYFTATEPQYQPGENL"}, "source": "paper PMC2134945", "target": "T1, FLAG-tagged PR55γ (U2-OS) (human) (UniProt Q9Y2T4)", "T1 sequence": "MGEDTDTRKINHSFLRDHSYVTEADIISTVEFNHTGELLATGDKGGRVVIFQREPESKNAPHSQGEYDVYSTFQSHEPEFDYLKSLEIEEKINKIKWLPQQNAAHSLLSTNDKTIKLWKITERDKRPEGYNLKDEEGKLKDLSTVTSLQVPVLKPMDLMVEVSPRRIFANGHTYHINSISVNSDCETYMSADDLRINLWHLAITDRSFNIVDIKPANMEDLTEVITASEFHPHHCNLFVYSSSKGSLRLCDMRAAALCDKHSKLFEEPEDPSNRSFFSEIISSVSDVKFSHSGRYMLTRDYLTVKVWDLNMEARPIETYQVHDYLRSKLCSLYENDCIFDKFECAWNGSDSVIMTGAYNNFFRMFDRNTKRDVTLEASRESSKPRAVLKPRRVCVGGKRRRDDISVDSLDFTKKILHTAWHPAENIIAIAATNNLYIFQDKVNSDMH", "assay": "co-IP; U2-OS cells, transfected, lysed 48 h later in ELB (0.25 M NaCl, 0.1% NP-40, 50 mM HEPES pH 7.3); lysate 2 h with 2 ug antibody to the bait on protein A or G sepharose, or anti-FLAG M2 affinity gel; three washes in ELB; immunoblot; no UV", "note": "These are yes or no findings as the source states them, for the method shown. In cells and extracts the contact can be indirect. Sequences can lack the tags named with a protein."}
{"substance": "FYN (from UniProt P06241 1-537)", "values": [{"measurement": "binding", "value": "no binding"}]}
